The other results are listed elsewhere or left out.
The targets below were run with CNc1nc(-c2ccc3c(N)n[nH]c3c2)cc(N2C[C@@H](C(=O)NC3CCCCC3)CC[C@H]2C)n1 (assay: log2 fold change, soluble protein after heating vs DMSO (PISA); higher = thermal stabilisation; K562 cells, 10 uM, 30 min; active = over 0.2 and 3.5 SD of the protein, either way, in both replicates (recomputed)).
How it was run: (§1)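 K562 cells (2×10^6 cells/mL) were treated with 10 μM compound for 30 min, and aliquots were heated for 3 min over 48°C-58°C. Pooled aliquots were extracted in PBS with 0.5% NP-40 at 4°C, and the supernatant after 21,000xg for 90 min was measured by TMTpro 16plex LC-MS/MS with channel sums equalised. Reported thermal stability, relative to control samples and from duplicates, is a log2 fold change.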

Protein sequences, listed by entry. Tags and fused reporters are not part of them. Lines headed by an entry give the natural chain unless they say otherwise; changes in a name come on top.
UniProt Q9HA64: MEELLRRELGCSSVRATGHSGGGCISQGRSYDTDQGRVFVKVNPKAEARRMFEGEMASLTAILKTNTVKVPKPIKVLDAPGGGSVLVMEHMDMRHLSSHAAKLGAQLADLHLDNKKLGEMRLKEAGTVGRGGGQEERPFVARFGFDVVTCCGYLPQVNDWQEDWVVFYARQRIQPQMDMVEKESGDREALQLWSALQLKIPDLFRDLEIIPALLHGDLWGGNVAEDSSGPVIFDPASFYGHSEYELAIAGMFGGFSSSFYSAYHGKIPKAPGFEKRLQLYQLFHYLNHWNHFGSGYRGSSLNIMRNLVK
UniProt P21333, whole entry, looked up: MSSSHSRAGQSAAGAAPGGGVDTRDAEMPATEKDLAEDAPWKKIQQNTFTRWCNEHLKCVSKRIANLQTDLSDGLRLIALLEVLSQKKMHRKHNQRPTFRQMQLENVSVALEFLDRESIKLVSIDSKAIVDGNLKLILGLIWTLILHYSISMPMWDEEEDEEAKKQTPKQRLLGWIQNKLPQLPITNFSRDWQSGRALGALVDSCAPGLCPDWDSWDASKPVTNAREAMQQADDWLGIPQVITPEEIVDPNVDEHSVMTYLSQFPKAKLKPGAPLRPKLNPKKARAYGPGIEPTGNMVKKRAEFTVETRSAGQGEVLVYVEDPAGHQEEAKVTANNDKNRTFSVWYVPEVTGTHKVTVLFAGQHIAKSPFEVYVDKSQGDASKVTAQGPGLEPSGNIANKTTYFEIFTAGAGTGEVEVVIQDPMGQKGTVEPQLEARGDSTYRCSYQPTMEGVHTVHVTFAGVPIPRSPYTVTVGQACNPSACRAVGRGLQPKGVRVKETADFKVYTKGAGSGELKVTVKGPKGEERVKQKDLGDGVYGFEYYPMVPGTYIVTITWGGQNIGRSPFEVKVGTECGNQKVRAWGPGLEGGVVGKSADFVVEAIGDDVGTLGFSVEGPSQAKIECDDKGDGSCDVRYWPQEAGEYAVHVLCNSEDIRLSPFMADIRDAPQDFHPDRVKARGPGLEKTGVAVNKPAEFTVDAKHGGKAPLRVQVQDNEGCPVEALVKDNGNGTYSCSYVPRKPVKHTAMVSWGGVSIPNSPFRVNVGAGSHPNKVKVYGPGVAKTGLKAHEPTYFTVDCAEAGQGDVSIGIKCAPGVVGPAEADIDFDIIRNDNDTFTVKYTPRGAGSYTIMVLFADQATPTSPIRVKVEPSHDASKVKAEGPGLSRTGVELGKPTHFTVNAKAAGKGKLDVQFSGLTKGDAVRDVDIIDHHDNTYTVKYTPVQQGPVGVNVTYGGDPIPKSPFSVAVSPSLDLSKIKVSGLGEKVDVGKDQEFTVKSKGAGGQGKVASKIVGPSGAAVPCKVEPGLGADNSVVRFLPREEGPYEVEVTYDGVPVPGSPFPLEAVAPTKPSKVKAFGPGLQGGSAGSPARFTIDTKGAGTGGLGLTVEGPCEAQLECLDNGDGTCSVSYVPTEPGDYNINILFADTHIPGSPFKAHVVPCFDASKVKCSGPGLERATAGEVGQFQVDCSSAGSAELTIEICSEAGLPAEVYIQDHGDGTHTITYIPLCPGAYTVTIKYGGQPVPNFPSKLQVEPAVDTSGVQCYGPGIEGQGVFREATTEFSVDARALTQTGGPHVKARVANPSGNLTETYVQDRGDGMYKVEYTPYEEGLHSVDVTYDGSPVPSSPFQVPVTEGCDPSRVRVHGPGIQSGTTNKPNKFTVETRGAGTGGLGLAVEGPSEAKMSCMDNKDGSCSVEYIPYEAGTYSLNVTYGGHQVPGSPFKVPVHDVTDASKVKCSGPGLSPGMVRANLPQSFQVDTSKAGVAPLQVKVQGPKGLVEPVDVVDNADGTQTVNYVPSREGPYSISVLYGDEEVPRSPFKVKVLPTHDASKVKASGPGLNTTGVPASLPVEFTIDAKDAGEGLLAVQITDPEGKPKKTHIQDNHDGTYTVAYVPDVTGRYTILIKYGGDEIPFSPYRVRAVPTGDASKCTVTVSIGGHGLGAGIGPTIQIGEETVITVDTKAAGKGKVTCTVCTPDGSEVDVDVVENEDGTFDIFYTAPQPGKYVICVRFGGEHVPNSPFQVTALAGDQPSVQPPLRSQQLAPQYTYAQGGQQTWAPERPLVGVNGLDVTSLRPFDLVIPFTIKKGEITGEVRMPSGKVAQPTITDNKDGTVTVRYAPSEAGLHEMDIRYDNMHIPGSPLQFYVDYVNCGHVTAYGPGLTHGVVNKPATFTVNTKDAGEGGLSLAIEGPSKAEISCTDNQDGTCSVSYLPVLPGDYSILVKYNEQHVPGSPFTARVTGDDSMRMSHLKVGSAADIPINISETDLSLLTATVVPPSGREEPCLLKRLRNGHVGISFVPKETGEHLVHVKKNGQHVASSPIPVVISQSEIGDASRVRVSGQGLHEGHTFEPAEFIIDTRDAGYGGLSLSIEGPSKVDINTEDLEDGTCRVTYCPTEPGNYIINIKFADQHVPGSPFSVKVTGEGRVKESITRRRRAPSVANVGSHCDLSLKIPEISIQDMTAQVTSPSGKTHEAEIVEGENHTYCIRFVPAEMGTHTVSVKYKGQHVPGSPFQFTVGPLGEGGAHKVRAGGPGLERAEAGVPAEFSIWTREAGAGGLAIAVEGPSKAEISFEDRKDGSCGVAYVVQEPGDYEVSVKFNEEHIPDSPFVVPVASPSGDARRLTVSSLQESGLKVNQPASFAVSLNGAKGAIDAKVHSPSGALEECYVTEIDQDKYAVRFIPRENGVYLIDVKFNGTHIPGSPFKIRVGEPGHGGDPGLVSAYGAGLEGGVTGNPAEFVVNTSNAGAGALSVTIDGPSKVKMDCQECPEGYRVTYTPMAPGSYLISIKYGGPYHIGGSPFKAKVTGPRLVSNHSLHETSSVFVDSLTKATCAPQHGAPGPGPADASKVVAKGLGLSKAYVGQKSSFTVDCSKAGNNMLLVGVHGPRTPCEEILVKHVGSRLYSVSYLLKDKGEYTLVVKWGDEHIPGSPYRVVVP
UniProt P10109: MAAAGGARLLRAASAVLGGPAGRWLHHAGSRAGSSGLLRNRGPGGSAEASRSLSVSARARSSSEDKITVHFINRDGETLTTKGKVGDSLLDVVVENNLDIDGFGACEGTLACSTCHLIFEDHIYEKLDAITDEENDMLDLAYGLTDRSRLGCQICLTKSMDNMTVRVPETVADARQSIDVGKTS
UniProt Q8IW50: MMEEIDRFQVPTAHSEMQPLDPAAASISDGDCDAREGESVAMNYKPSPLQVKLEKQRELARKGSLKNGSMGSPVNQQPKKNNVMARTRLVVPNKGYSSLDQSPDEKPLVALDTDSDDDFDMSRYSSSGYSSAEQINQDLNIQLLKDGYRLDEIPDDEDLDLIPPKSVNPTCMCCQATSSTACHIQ
UniProt P98173: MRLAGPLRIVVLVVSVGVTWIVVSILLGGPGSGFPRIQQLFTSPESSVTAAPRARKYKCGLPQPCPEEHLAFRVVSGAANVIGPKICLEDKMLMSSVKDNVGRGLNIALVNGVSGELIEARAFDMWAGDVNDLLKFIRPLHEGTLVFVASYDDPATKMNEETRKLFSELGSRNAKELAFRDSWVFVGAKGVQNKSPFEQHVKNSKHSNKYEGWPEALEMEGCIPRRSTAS
UniProt Q13643: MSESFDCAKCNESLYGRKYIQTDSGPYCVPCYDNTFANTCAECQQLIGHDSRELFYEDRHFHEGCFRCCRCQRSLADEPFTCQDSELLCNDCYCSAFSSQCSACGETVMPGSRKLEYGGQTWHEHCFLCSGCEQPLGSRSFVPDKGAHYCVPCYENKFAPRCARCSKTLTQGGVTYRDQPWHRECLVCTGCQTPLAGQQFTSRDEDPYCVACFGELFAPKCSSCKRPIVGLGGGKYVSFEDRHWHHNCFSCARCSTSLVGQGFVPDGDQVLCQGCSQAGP
UniProt Q9NUQ9: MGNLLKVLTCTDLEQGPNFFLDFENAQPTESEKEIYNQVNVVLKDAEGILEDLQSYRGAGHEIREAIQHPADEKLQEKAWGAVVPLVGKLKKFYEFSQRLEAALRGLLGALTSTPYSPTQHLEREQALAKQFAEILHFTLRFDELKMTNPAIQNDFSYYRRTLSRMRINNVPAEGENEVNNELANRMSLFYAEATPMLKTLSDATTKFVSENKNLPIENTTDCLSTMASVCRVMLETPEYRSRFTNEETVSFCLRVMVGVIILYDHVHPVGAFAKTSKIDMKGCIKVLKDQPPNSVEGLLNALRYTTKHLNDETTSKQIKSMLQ
UniProt Q9NYY8: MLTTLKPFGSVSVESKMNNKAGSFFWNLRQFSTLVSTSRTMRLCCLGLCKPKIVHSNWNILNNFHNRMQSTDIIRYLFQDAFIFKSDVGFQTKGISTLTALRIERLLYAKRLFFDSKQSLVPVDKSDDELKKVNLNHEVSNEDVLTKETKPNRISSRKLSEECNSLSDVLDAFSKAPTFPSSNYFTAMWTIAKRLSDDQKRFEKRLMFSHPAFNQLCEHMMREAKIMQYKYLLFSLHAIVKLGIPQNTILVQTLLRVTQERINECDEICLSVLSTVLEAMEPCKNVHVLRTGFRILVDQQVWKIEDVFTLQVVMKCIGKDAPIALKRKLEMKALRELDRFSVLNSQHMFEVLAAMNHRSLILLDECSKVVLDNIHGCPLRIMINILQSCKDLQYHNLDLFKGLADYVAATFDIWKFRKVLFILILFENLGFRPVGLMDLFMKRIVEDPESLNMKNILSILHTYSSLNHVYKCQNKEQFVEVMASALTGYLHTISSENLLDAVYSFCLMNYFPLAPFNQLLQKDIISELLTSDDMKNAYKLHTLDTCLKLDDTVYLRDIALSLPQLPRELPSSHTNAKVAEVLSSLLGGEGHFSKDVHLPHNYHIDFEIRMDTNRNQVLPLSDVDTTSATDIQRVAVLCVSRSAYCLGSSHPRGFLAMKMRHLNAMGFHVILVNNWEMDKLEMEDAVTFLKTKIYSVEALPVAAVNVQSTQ
UniProt O95363: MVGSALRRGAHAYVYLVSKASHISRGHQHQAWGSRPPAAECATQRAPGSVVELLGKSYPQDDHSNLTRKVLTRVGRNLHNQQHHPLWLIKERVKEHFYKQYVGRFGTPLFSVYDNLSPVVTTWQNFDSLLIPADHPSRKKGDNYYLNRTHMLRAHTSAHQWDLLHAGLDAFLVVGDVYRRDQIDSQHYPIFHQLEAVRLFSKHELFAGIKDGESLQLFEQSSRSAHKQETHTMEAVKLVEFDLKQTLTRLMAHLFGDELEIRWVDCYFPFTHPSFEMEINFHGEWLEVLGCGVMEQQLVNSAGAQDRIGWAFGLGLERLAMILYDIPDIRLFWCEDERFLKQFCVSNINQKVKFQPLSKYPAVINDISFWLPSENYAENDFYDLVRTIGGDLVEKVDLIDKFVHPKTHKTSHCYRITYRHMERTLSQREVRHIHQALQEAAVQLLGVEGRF
UniProt Q13451: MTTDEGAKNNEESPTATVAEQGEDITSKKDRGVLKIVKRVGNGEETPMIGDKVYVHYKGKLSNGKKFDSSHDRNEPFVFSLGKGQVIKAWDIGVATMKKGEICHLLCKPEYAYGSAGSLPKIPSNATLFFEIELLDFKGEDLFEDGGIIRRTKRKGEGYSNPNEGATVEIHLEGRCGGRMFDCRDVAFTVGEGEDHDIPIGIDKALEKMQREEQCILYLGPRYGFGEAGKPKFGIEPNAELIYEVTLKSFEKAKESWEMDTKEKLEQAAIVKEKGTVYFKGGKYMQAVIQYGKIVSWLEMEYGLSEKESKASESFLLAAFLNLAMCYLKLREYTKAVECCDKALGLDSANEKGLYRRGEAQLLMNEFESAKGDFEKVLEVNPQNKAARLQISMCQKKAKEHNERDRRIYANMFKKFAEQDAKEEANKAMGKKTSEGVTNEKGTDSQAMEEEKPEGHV
UniProt Q96ND0: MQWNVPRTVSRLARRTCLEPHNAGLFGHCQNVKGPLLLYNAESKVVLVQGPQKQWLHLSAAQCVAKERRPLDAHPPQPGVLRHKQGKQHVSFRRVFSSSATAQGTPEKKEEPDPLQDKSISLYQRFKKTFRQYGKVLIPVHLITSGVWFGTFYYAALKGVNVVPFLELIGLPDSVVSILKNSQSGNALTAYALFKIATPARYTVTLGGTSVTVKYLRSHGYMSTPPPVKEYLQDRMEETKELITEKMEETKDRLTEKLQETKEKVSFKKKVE
UniProt Q5XUX1: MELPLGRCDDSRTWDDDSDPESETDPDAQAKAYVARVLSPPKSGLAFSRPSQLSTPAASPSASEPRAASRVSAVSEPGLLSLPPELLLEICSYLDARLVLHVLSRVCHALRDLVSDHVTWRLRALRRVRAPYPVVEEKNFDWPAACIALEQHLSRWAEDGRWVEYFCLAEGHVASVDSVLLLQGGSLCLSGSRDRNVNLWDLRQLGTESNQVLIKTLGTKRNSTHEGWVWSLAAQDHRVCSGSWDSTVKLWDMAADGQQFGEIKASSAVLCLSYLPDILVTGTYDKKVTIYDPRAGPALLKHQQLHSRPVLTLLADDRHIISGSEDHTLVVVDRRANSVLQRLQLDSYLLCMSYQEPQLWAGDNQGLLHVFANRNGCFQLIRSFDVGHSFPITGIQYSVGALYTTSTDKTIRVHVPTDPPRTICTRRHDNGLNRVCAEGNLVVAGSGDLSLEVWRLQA

log2 fold change, inactive:
FN3KRP (UniProt Q9HA64) 0.013
FCGR2A (UniProt P12318) -0.238
FKRP (UniProt Q9H9S5) -0.044
FDXR isoform 7 (UniProt P22570) 0.034
FIP1L1 (UniProt Q6UN15) -0.108
FAM234A (UniProt Q9H0X4) -0.039
FLNA (UniProt P21333) 0.017
FAM98A (UniProt Q8NCA5) 0.146
FLT4 (UniProt P35916) -0.061
FBXL12 (UniProt Q9NXK8) 0.051
FKBPL (UniProt Q9UIM3) -0.009
FDX1 (UniProt P10109) -0.033
FAM219A (UniProt Q8IW50) -0.023
FAM91A1 (UniProt Q658Y4) 0.002
FBXO30 (UniProt Q8TB52) -0.065
FBXO7 (UniProt Q9Y3I1) 0.028
FAM76B (UniProt Q5HYJ3) -0.069
FAM3A (UniProt P98173) 0.075
FANCB (UniProt Q8NB91) -0.018
FECH isoform 2 (UniProt P22830) 0.538
FHL3 (UniProt Q13643) -0.077
FKBP9 (UniProt O95302) -0.046
FAM49B (UniProt Q9NUQ9) -0.006
FASTKD2 (UniProt Q9NYY8) 0.007
FGF13 isoform 3 (UniProt Q92913) 0
FERMT3 (UniProt Q86UX7) 0.036
FBXO6 (UniProt Q9NRD1) 0.011
FBL (UniProt P22087) 0.002
FNBP4 isoform 2 (UniProt Q8N3X1) -0.054
FAR1 (UniProt Q8WVX9) -0.088
FARS2 (UniProt O95363) 0.074
FN1 isoform 1 (UniProt P02751) -0.042
FKBP4 (UniProt Q02790) 0.05
FKBP5 (UniProt Q13451) 0.084
FAT3 isoform 1 (UniProt Q8TDW7) 0.043
FAM210A (UniProt Q96ND0) -0.044
FIS1 (UniProt Q9Y3D6) 0.182
FBXW9 (UniProt Q5XUX1) -0.059

These targets were tested with COC(=O)N[C@@H](C)CNc1nccc(-c2cn(C(C)C)nc2-c2cc(Cl)cc(NS(C)(=O)=O)c2F)n1 [encorafenib] in the same assay as above.
How it was run: as §1

log2 fold change, inactive:
FN3KRP (UniProt Q9HA64) -0.017
FCGR2A (UniProt P12318) -0.082
FKRP (UniProt Q9H9S5) 0.053
FDXR isoform 7 (UniProt P22570) -0.034
FIP1L1 (UniProt Q6UN15) 0.016
FAM234A (UniProt Q9H0X4) 0.003
FLNA (UniProt P21333) 0.089
FAM98A (UniProt Q8NCA5) 0.125
FLT4 (UniProt P35916) -0.026
FBXL12 (UniProt Q9NXK8) -0.051
FKBPL (UniProt Q9UIM3) 0.009
FDX1 (UniProt P10109) -0.076
FAM219A (UniProt Q8IW50) 0.047
FAM91A1 (UniProt Q658Y4) 0.05
FBXO30 (UniProt Q8TB52) 0.017
FBXO7 (UniProt Q9Y3I1) -0.009
FAM76B (UniProt Q5HYJ3) 0.021
FAM3A (UniProt P98173) 0.118
FANCB (UniProt Q8NB91) 0.021
FECH isoform 2 (UniProt P22830) -0.033
FHL3 (UniProt Q13643) -0.029
FKBP9 (UniProt O95302) 0.061
FAM49B (UniProt Q9NUQ9) 0.009
FASTKD2 (UniProt Q9NYY8) 0.006
FGF13 isoform 3 (UniProt Q92913) -0.006
FERMT3 (UniProt Q86UX7) 0.063
FBXO6 (UniProt Q9NRD1) 0.033
FBL (UniProt P22087) 0.096
FNBP4 isoform 2 (UniProt Q8N3X1) -0.036
FAR1 (UniProt Q8WVX9) 0.016
FBH1 isoform 2 (UniProt Q8NFZ0) -0.015
FARS2 (UniProt O95363) 0.026
FN1 isoform 1 (UniProt P02751) -0.018
FKBP4 (UniProt Q02790) 0.026
FKBP5 (UniProt Q13451) 0.134
FAT3 isoform 1 (UniProt Q8TDW7) -0.097
FAM210A (UniProt Q96ND0) -0.08
FIS1 (UniProt Q9Y3D6) -0.049
FBXW9 (UniProt Q5XUX1) -0.065

From the supplement of paper PMC10849652
